# These are yes or no findings as the source states them, for the method shown. Some results given as binding are weak or reduced against the parent protein; the word gives no strength.
# T1: VEIFYR peptide (LG3BP tryptic peptide)
# T1 sequence (peptide): VEIFYR
# B1: LG3BP-AJ-1.2-14E09-02F04 (antibody, V domains shown)
# VH: QVQLQQPGAELVKPGASVKLSCKASGYTFSSYWMHWVKQRPGQGLEWIGEINRSNGRTNYNEKFKSKATLTVDKSSTTAYMQLSSLTSEDSAVYYCTKWGVTSDYWGQGTTLTVSS
# VL: ENVLTQSPAIMSASPGEKVTMTCSASSNVNYMHWFQQKSSTSPKLWIYDTSKLASGVPGRFSGSGSGNSYSLTISSMEAEDVATYYCFQGSGYPRTFGGGTKLEIK
# Key:
# [1] = target: T1, VEIFYR peptide (LG3BP tryptic peptide); experiment: Peptide Target listed for the purified subclone (selected by peptide ELISA)
# [2] = target: T1, VEIFYR peptide (LG3BP tryptic peptide); experiment: indirect ELISA on directly coated peptide
binder,measurement,setting,value
B1,binding,[1],binds
same,binding,[2],binds

# From US11542340
